The list shows a part of the results. Shown are side measurements of this screen, not its main read-out; they come without a call. Most of these compounds were active or inconclusive in the main read-out, so they are no random draw.
Assay: inhibitors of insulin promoter-driven GFP, primary screen, imaging, TRM-6 cells (human fetal islet line), eGFP reporter, cell count (AID 1273;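 also: cells exposed to compound for 48 h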)
Conditions: measured here: cell count, toxicity, at 2 µM, reporter expression induced with tamoxifen

Row | Structure (SMILES) | normalized cell count [%]
1 | CCCCN1CCc2c1nc1ccc(Br)cc1c2N | 127
2 | CC(C)NC(=O)c1onc(CSc2ccc(F)cc2)c1C(=O)O | 42.6
3 | C/C=C/CSc1nc2c(c(=O)[nH]c(=O)n2C)n1CCC | 98.4
4 | CC(C)(C)C(=O)Nc1ccc(S(=O)(=O)c2ccc(NC(=O)C(C)(C)C)cc2)cc1 | 89.6
5 | Cc1ccc(-n2c(=O)cc(N3CC(C)CC(C)C3)[nH]c2=O)cc1 (stereo not drawn) | 88.7
6 | CC(C)C(c1nnnn1C1CCCCC1)N1CCCc2ccccc21 (stereo not drawn) | 114
7 | CCNC(=S)N=Nc1c(O)[nH]c2ccc(C(C)C)cc12 | 118
8 | Cc1nc2ccccc2c2oc(C(=O)NCCN3CCCCC3C)cc12 (stereo not drawn) | 149
9 | c1csc(-c2cn3ccc4ccccc4c3n2)c1 | 60.9
10 | Cc1cc(C(=O)NCC2COc3ccccc3O2)c2ccccc2n1 (stereo not drawn) | 104
11 | O=C(CN1C(=O)NC2(CCCC2)C1=O)Nc1cccc(-c2nnc3n2CCCCC3)c1 | 124
12 | CCOC(=O)CS(=O)(=O)c1ccc2ccccc2c1 | 123
13 | O=C(CCl)Nc1cc(-c2ccccc2)nn1-c1ccccc1 | 127
14 | CS(=O)(=O)N(CC(=O)N1CCCC1)c1ccc(OCc2ccccc2)cc1 | 44.9
15 | C(=N\Nc1ncnc2ccccc12)/c1ccccc1 | 50.6
16 | O=C(CCCSc1ccccc1)Nc1nc(-c2ccco2)c(-c2ccco2)s1 | 72.8
17 | COc1ccc(CN2CCN(C(=O)CC(C)C)CC2)c2ccccc12 | 101
18 | O=c1[nH]c(CN2CCN(CCO)CC2)nc2ccccc12 | 18.6
19 | CC(C)(C)NC(=O)C(c1ccco1)N(C(=O)Cn1nnc(-c2ccc(F)cc2)n1)c1ccccc1 (stereo not drawn) | 84.4
20 | Cc1cccc2sc(NNC(=O)c3ccc(S(=O)(=O)N4CCCC(C)C4)cc3)nc12 (stereo not drawn) | 83.1
21 | COc1ccc2nc(-c3cccc(N)c3)[nH]c2c1 | 150
22 | CCCc1c(C)[nH]c2ccccc2c1=O | 122
23 | COc1ccc(CNC(=O)C2CC(c3cccc(OC)c3)=NO2)cc1 (stereo not drawn) | 73.2
24 | COc1ccc2c(c1)C(C)CC(C)(C)N2C(=O)NC1CCCCC1 (stereo not drawn) | 98.1

Row | Structure (SMILES) | normalized cell count [%]
25 | c1ccc(CSCc2nc3ccccc3[nH]2)cc1 | 147
26 | CCCn1c(=S)[nH]c2cc(C(=O)NCC3CCCO3)ccc2c1=O (stereo not drawn) | 61.5
27 | CCOC(=O)/C=C1\NC(C)(C)Cc2cc(OC)c(OC)cc21 | 53.8
28 | O=C(NC(Cc1ccc2c(c1)OCO2)C(=O)N1CCCC1C(=O)O)c1ccccc1 (stereo not drawn) | 125
29 | CCOC(=O)N1CCN(C(=O)CCN2C(=O)COc3ccccc32)CC1 | 89.7
30 | CCCCOc1ccc(C(=O)C(CN2CCOCC2)c2ccccc2)cc1 (stereo not drawn) | 82.5
31 | COCCNC(=O)Cn1c(=O)n(CCCCCC(=O)NCc2ccc3c(c2)OCO3)c(=O)c2sccc21 | 99.2
32 | CCCCn1cnc2c(cnn2-c2ccc(F)cc2)c1=O | 91.7
33 | O=S(=O)(Nc1ccc(S(=O)(=O)N2CCCCCC2)cc1)c1cccs1 | 85.9
34 | Cc1nn(-c2ccccc2)c(C)c1/C=N/Nc1nc2ccccc2[nH]1 | 89.3
35 | COc1cccc(/C=N/N2CCN(C)CC2)c1 | 94.2
36 | O=C(CCn1c(=S)oc2ccccc21)N1CCCCC1 | 119
37 | Cc1ccc(S(=O)(=O)c2c(C)nn(C(C)(C)C)c2OC(=O)C2CCCC2)cc1 | 70
38 | CCOc1ccc(Nc2nc(N)nc(CN(C)C3CCCCC3)n2)cc1 | 103
39 | COc1ccc(C(OCC2CO2)c2ccc(OC)cc2)cc1 (stereo not drawn) | 108
40 | CCc1nnc(NC(=O)CSc2nnc(-c3ccoc3C)n2-c2ccccc2)s1 | 98.6
41 | O=C(c1cccs1)N1CCC(c2ccccc2)C1 (stereo not drawn) | 76.1
42 | COc1ccccc1NS(=O)(=O)c1cc(N)ccc1N1CCCCC1 | 98.5
43 | O=C(Nc1cccc(Cl)c1)Nc1nccs1 | 97.8
44 | COc1cccc(N2CCN(Cc3nc4ccccc4c(=O)[nH]3)CC2)c1 | 39.7
45 | Cc1ccc(C)c(SCC(=O)NC(=O)Nc2ccc3c(c2)OCCO3)c1 | 74.3
46 | Cc1ccc(NC(=O)c2cnn(-c3ccccc3)c2NC(=O)c2ccco2)cc1C | 115
47 | O=C(/C=C/c1ccc(N2CCCCC2)c([N+](=O)[O-])c1)c1ccc(O)cc1 | 87.9
48 | CCCCCCN1C2=NCCN2c2ccccc21 | 138

Row | Structure (SMILES) | normalized cell count [%]
49 | CCNc1nc(N)nc(-c2cc(Cl)ccc2O)n1 | 74.1
50 | CC(C)N1CC(C(=O)Nc2nc3ccccc3s2)CC1=O (stereo not drawn) | 80.8
51 | COc1ccc(OC)c(-n2c(SCC(=O)N3CCc4ccccc43)nc3c(c2=O)SCC3)c1 | 62.4
52 | O=C(N/C(=C\c1cccs1)C(=O)N1CCOCC1)c1cccs1 | 87.4
53 | O=C(Oc1cccnc1)c1ccccc1[N+](=O)[O-] | 102
54 | O=C(Nc1ccccc1)N1CC=C(c2ccccc2)CC1 | 89.3
55 | c1cncc(-c2nc3ccccc3[nH]2)c1 | 132
56 | O=C(Cn1nc(-c2ccccc2)ccc1=O)NCC1COCCO1 (stereo not drawn) | 16.2
57 | c1ccc(-c2ccccc2-c2nc(-c3ccncc3)no2)cc1 | 38.1
58 | O=C(O)c1cn(-c2ccccc2)c(=O)c2ccccc12 | 168
59 | COC(=O)c1ccccc1NC(=O)N1CCCC1 | 125
60 | O=C(O)c1cc(-c2cccs2)nc2cc3c(cc12)OCCO3 | 159
61 | COc1ccc(S(=O)(=O)N2CCCC2C(=O)Nc2ccc(C(C)=O)cc2)cc1 (stereo not drawn) | 90.2
62 | COc1ccc(-c2nc(N3CCC(C)CC3)[nH]c(=O)c2C#N)cc1 | 33.9
63 | COc1ccc(OC)c(CNC(=O)Cc2c(C(=O)O)[nH]c3ccc(Cl)cc23)c1 | 94.2
64 | O=C(CSC1=NCCS1)Nc1ccc(S(=O)(=O)N2CCCCCC2)cc1 | 112
65 | COc1ccccc1N1CCN(C(=O)c2n[nH]c3ccccc23)CC1 | 152
66 | O=C(Nc1ccsc1C(=O)N1CCCC1)c1ccccc1 | 181
67 | N#CCCn1cc(/C=C(\C#N)c2nc3ccccc3s2)c(-c2ccc(F)cc2)n1 | 50.6
68 | COc1ccc(C2=NOC(C(=O)Nc3cc(Br)ccc3O)C2)cc1OC (stereo not drawn) | 32.2
69 | O=C(COC(=O)Cc1ccsc1)Nc1ccccc1 | 84.1
70 | c1ccc2c(c1)NC(c1ccncc1)n1c-2nc2ccccc21 (stereo not drawn) | 80.1
71 | Cc1nn2c(Nc3ccc(F)cc3)c3c(nc2c1-c1ccccc1)CCC3 | 159
72 | COc1ccc(OC)c2[nH]c(=O)c(CCNC(=O)C3CCCCC3)cc12 | 102

Quoted from the listing:
normalized cell count [%] with COc1ccc(S(=O)(=O)N2CCCC2C(=O)Nc2ccc(C(C)=O)cc2)cc1 (stereo not drawn) reads 90.2
normalized cell count [%] with c1ccc(-c2ccccc2-c2nc(-c3ccncc3)no2)cc1 reads 38.1
normalized cell count [%] with COc1ccc(C2=NOC(C(=O)Nc3cc(Br)ccc3O)C2)cc1OC (stereo not drawn) reads 32.2
normalized cell count [%] with O=C(Nc1ccccc1)N1CC=C(c2ccccc2)CC1 reads 89.3
normalized cell count [%] with O=C(O)c1cc(-c2cccs2)nc2cc3c(cc12)OCCO3 reads 159

Following part:

Row | Structure (SMILES) | normalized cell count [%]
73 | CN(C)c1ncnc2c1ncn2C1OC(CO)C(O)C1O (stereo not drawn) | 101
74 | Cc1nn(C)cc1CNC(=O)COc1ccc(Cl)cc1Cl | 147
75 | CCN(CC)S(=O)(=O)c1cccc(NC(=O)c2ccccc2Br)c1 | 33.3
76 | COc1ccc(/C=N/n2c(N)nc3ccccc32)cc1OC | 112
77 | CCOC(=O)c1c(N)nn(C(=O)C(C)C)c1-c1ccc(OC)cc1 | 96.5
78 | COc1ccc2c(C)cc(=O)[nH]c2c1 | 121
79 | O=C(Nc1ccc(N2CCN(c3ccccc3)CC2)c(F)c1)C1CC1 | 139
80 | CCCN1CN(Cc2ccco2)c2nc3ccccc3n2C1 | 107
81 | CCc1nc(N(CC)CC)c2oc3ccccc3c2n1 | 146
82 | O=C(COC(=O)CCSc1ccc(Cl)cc1)NCc1ccccc1Cl | 92.7
83 | CCc1nnc(NC(=O)CSc2nnc(COc3cccc(C)c3)o2)s1 | 62.4
84 | O=C(Nc1ccccc1Cl)OCc1cncs1 | 84.8
85 | Cc1nc(N/N=C/c2ccc(O)cc2)c2cnn(-c3ccccc3)c2n1 | 36.9
86 | COCCCNC(=O)c1c(NC(=O)C2COc3ccccc3O2)sc2c1CCCC2 (stereo not drawn) | 56.1
87 | CCOc1ccc(NC(=O)c2ccc3snnc3c2)cc1 | 144
88 | Cc1sc2nc(SCC(=O)NCc3cccs3)[nH]c(=O)c2c1C | 136
89 | O=c1[nH]c(-c2ccccn2)cc2ccccc12 | 165
90 | Cc1nc2cc(Cl)ccc2n1CCO | 145
91 | CCOc1ccc(NC(=S)c2ccncc2)cc1 | 139
92 | O=c1[nH]c2cccnc2n1Cc1ccccc1 | 117
93 | CCOc1ccc(C(=O)OCCN(CC)CC)cc1 | 25.2
94 | CC(C)Sc1nnc2n(CCc3ccccc3)c(=O)c3c4c(sc3n12)COC(C)(C)C4 | 29.3
95 | CC(=O)c1cnc(Nc2cccc(C)c2)s1 | 126
96 | COc1ccc(/C=C/C(=O)CC(O)(c2ccccc2)C(F)(F)F)cc1 (stereo not drawn) | 96.4

Row | Structure (SMILES) | normalized cell count [%]
97 | c1ccc2nc3c(cc2c1)CCCCCC3 | 126
98 | O=C(OCC(=O)N1CCCC1)c1cncc(Br)c1 | 9.19
99 | COc1ccccc1N/N=C/c1ccc2c(c1)OCO2 | 148
100 | Cn1cc(SCC(=O)O)c2ccccc21 | 118
101 | COc1cc(OC)c(NC(=O)c2ccoc2C)cc1Cl | 95.6
102 | COc1ccc(OC)c2[nH]c(=O)c(CCNC(=O)c3ccc(S(=O)(=O)N(C)C)cc3)cc12 | 87.2
103 | Cc1ccnc(SCC(=O)c2ccc(Br)cc2)c1C#N | 161
104 | CCOC(=O)N1CCC(c2cc(=O)n3[nH]c(-c4ccccc4)cc3n2)CC1 | 105
105 | COc1ccccc1-c1cc(C(F)(F)F)nc(S(=O)(=O)CCCC(=O)Nc2cccnc2Cl)n1 | 73.8
106 | Nc1nc(SCC(=O)NCc2ccc3c(c2)OCO3)n[nH]1 | 94.7
107 | COC(=O)C1=C(C)N=C2SC(C#N)=C(N)N2C1c1cccc(OC)c1 (stereo not drawn) | 2.8
108 | Cc1cccc(NC(=O)CN2C(=O)N/C(=C/c3cc(C)n(C)c3C)C2=O)c1 | 134
109 | O=C(Nc1ccc(Cl)cc1)N1CC=CCC1 | 122
110 | CCC(NC(=O)COc1ccc([N+](=O)[O-])cc1)c1ccccc1 (stereo not drawn) | 95.7
111 | O=C(O)c1ccccc1Sc1c([N+](=O)[O-])cc(C(F)(F)F)cc1[N+](=O)[O-] | 127
112 | O=C(NCCc1ccc(F)cc1)N1CCOCC1 | 99.5
113 | Nc1c2c(nc3ccc(Br)cc13)N(Cc1ccccc1)CC2 | 63.3
114 | Cc1ccc(S(=O)(=O)Oc2ccc(C)cc2/C=N/N=C2\NC(=O)C(C)S2)cc1 (stereo not drawn) | 40.6
115 | Cc1ccc(-n2c(C)csc2=N)cc1 | 136
116 | Cc1cc(C)n2nc(Cc3ccccc3)nc2n1 | 123
117 | Cc1nn(-c2nc3ccccc3s2)c(N)c1-c1ccc(Cl)cc1 | 111
118 | Cc1c(CNC(=O)c2cnn3c2NC(c2ccc(Br)cc2)CC3C(F)(F)F)cnn1C (stereo not drawn) | 25.6

Reference: PubChem BioAssay AID1273 (Columbia University Molecular Screening Center, 2008)
